Measurements: patent US20120231007A1, “MODULATORS OF CELL CYCLE PROGRESSION” (SINGAPORE HEALTH SERVICES PTE. LTD., priority 2009, published 2012)
At least one structure is not confirmed: it was looked up by name or label, or the drawing left a doubt.

Test system: Ect2
Assay: Nucleolar localisation of Ect2
Type: cell-based
Conditions: Rapamycin 50 nM

CO[C@H]1C[C@@H]2CC[C@@H](C)[C@@](O)(O2)C(=O)C(=O)N2CCCC[C@H]2C(=O)O[C@H]([C@H](C)C[C@@H]2CC[C@@H](O)[C@H](OC)C2)CC(=O)[C@H](C)/C=C(\C)[C@@H](O)[C@@H](OC)C(=O)[C@H](C)C[C@H](C)/C=C/C=C/C=C/1C [Rapamycin]
nucleolar accumulation of Ect2: induces time-dependent nucleolar accumulation
